Results taken from paper PMC12794220.
These are yes or no findings as the source states them, for the method shown. Binding seen in cells or lysates may run through a third protein. Here binding means that the protein was enriched with, or labelled near, the bait; the list need not be complete.

Sequences of proteins named here, by UniProt entry; tags and fusion partners are left off. A change or cut given only in a name is not applied to a line headed by its entry.
UniProt A0A3Q7IID5: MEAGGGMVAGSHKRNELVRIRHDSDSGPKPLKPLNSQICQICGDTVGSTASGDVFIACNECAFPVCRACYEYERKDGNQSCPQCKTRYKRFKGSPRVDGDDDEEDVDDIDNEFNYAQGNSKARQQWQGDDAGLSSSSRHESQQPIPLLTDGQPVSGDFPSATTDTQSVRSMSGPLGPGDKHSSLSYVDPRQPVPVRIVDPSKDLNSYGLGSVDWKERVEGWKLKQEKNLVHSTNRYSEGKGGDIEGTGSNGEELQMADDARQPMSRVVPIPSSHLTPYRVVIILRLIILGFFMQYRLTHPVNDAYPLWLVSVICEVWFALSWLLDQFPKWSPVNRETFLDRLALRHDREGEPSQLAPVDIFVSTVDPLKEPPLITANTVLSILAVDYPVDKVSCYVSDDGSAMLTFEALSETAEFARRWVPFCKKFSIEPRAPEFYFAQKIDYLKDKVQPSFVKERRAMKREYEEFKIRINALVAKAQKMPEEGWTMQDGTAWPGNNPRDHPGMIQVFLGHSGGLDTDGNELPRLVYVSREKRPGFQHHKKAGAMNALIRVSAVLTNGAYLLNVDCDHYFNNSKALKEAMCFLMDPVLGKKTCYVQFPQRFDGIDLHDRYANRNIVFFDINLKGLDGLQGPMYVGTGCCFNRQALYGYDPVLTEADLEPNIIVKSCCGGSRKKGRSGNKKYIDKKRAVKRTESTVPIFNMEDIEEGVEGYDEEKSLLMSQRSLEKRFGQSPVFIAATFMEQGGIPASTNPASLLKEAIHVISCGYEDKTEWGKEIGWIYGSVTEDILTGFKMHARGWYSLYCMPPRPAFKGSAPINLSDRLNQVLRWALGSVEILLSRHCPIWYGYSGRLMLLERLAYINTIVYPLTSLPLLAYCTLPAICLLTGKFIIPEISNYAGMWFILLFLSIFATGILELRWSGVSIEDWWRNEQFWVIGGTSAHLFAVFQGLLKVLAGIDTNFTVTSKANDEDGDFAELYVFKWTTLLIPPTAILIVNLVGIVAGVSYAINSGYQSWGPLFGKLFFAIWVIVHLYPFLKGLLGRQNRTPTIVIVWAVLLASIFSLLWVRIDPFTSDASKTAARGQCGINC

Target: SlFWL5-YFP (SlFWL5 fused to yellow fluorescent protein at the C-terminal end) (tomato (Solanum lycopersicum cv. Ailsa Craig))
Test: affinity purification with mass spectrometry; IP-MS/MS: total protein extract (1x PBS, protease inhibitors, 1% Triton X-100, 4 °C) of pooled leaves 6, 5 and 4 of 4-week-old 35S::SlFWL5-YFP tomato plants; anti-GFP microbeads (µMACS Epitope Tag Protein Isolation Kit); about 500 µg soluble protein per assay; control 35S::NLS-GFP-GUS; LC-MS/MS

- binding: binds
Substance: SlCesA1, a subunit of the Cellulose Synthase complex (from UniProt A0A3Q7IID5) (enzyme)
